Some of the results follow.
What was measured:
Assay in all cases: log2 fold change, soluble protein after heating vs DMSO (PISA); higher = thermal stabilisation; K562 lysate, 10 uM; active = over 0.2 and 3.5 SD of the protein, either way, in both replicates (recomputed)
[1] = compound: C1=CC=C(C=C1)[C@H](COC2=CC3=C(C=C2)NC(=O)N3)NC(=O)C4=CC=CN(C4=O)CC5=CC(=C(C=C5)F)F
Summary of the method: (§1)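 The values are log-two fold changes in thermal stability compared with solvent controls and come from duplicates. They were obtained by TMTpro 16plex LC-MS/MS, with channel sums equalised, on the supernatant after 21,000xg for 90 min. That supernatant came from crude K562 extract at 1 mg/mL protein treated with 10 μM compound for 30 min, heated for 3 min across 48°C-58°C, pooled and brought to 0.5% NP-40 at 4°C.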

Chains of the proteins cited; added tags and fusions are not shown. Lines headed by an entry give the natural chain unless they say otherwise; changes in a name come on top.
UniProt Q5THK1: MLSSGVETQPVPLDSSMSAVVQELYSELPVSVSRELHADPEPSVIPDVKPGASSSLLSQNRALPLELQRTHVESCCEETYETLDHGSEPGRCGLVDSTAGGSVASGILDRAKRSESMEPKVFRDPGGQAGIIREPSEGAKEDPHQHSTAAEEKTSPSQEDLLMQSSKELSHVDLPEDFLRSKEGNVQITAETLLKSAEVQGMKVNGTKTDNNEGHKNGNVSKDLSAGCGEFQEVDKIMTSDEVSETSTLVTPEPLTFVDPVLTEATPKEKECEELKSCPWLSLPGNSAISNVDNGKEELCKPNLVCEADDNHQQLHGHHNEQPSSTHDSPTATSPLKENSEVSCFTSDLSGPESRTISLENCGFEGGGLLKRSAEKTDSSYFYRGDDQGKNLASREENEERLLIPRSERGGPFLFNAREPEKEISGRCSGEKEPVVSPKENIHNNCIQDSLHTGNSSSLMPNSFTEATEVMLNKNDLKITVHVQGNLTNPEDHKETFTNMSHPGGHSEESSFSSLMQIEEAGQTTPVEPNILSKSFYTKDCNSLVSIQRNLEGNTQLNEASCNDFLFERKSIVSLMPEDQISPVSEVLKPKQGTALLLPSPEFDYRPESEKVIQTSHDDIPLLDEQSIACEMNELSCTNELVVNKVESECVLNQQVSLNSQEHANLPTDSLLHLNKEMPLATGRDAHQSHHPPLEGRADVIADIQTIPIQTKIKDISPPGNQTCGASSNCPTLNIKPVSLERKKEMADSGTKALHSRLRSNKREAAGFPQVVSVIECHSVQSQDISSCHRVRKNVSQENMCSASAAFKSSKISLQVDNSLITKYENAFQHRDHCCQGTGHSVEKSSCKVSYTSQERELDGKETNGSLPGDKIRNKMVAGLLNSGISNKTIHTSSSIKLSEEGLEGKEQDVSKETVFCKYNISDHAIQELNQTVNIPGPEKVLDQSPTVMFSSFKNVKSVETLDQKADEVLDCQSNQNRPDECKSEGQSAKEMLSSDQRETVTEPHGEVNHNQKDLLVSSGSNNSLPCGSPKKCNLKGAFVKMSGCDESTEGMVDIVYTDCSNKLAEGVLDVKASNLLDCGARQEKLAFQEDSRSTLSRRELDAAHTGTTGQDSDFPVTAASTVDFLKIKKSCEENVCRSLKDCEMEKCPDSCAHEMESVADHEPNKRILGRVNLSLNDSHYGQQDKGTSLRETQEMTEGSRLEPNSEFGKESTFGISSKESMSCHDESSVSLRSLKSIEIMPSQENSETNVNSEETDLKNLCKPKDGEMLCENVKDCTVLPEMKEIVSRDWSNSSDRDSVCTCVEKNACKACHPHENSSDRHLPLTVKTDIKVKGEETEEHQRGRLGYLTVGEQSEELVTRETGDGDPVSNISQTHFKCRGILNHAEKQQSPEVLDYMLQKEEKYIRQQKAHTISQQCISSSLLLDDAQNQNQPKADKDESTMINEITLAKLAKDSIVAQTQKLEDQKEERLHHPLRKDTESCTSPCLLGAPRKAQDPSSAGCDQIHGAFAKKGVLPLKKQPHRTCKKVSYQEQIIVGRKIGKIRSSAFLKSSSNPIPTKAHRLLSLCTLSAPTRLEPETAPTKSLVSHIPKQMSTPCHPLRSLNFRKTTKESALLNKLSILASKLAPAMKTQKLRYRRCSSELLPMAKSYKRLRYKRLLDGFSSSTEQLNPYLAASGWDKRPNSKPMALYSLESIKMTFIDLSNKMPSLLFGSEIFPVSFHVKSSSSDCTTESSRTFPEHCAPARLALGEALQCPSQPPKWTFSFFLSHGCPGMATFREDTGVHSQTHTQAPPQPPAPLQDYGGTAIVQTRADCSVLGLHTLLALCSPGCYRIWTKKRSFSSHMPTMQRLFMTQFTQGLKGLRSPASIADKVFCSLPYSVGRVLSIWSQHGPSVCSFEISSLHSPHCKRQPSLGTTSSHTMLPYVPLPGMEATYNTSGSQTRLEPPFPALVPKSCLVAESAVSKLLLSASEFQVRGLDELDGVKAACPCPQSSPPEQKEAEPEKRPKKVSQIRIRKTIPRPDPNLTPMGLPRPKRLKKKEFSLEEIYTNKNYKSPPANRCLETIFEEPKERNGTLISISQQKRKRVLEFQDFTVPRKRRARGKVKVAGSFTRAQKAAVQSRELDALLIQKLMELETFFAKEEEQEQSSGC
UniProt Q03393: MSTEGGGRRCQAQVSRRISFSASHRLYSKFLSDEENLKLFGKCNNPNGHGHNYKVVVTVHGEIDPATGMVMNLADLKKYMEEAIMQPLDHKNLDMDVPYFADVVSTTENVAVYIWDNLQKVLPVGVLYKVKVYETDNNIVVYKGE
UniProt O95456: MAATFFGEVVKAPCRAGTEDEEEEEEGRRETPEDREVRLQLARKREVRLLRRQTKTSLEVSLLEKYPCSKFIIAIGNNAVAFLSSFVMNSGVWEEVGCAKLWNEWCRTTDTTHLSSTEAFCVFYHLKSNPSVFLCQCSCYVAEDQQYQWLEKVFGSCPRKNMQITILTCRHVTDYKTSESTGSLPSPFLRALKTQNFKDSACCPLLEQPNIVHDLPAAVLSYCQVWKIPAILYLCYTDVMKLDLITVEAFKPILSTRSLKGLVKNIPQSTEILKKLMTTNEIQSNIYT
UniProt Q15269: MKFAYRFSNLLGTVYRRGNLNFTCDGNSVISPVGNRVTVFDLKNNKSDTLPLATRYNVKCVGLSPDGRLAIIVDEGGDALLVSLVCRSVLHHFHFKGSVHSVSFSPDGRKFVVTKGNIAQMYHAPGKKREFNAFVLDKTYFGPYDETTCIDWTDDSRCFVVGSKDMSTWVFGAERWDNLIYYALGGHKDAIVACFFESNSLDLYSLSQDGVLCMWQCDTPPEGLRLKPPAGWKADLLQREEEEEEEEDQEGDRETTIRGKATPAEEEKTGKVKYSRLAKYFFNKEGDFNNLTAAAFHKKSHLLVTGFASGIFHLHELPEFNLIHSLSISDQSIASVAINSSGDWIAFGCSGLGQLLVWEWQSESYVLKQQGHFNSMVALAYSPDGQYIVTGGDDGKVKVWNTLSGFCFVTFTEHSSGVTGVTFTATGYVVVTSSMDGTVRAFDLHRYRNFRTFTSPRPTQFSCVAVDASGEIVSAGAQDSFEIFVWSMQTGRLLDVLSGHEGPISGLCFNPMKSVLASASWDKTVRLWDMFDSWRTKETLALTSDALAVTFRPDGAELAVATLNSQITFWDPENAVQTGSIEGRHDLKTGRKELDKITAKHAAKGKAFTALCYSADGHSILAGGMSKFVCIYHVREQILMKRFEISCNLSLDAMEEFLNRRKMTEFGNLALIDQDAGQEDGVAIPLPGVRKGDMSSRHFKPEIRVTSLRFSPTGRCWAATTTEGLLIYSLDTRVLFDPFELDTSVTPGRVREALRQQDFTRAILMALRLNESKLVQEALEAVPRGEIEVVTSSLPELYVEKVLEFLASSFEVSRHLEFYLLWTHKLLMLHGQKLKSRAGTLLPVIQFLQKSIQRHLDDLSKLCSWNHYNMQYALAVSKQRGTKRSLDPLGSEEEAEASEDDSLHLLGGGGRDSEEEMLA
UniProt Q05209: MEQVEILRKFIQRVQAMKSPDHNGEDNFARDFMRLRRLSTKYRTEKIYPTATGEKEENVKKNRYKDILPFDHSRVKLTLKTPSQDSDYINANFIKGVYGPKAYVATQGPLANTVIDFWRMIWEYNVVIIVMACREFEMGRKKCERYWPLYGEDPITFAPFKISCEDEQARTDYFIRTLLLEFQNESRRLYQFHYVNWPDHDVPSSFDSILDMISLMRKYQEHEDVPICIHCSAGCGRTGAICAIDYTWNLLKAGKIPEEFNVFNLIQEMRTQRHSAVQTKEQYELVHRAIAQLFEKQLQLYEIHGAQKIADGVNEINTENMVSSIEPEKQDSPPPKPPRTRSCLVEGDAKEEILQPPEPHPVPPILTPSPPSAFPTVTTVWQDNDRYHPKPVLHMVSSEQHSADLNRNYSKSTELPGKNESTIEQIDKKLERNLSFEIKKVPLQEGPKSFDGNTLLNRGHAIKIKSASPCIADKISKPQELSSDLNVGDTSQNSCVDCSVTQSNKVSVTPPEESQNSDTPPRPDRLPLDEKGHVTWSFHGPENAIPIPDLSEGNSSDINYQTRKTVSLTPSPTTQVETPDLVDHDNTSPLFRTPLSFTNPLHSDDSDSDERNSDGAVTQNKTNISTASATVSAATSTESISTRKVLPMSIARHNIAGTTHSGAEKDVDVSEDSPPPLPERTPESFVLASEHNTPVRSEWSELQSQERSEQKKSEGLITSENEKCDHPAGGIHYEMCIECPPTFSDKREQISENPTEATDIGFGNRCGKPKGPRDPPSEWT
UniProt O00232: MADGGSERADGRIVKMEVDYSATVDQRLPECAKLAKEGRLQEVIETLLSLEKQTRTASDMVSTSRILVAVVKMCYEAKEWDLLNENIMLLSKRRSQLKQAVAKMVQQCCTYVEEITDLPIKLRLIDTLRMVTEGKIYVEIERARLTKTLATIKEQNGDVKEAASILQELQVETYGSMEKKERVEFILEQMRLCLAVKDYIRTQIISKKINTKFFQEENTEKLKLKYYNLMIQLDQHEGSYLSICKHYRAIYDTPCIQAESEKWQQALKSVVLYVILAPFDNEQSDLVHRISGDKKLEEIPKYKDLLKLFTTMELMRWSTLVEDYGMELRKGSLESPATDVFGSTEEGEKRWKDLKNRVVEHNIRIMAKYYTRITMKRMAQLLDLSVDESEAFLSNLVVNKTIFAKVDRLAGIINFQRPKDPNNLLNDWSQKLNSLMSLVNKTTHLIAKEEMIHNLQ
UniProt P06454: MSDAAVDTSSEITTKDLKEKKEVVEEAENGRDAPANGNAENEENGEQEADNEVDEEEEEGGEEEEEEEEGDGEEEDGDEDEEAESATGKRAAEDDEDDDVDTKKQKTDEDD
UniProt Q9H0K6: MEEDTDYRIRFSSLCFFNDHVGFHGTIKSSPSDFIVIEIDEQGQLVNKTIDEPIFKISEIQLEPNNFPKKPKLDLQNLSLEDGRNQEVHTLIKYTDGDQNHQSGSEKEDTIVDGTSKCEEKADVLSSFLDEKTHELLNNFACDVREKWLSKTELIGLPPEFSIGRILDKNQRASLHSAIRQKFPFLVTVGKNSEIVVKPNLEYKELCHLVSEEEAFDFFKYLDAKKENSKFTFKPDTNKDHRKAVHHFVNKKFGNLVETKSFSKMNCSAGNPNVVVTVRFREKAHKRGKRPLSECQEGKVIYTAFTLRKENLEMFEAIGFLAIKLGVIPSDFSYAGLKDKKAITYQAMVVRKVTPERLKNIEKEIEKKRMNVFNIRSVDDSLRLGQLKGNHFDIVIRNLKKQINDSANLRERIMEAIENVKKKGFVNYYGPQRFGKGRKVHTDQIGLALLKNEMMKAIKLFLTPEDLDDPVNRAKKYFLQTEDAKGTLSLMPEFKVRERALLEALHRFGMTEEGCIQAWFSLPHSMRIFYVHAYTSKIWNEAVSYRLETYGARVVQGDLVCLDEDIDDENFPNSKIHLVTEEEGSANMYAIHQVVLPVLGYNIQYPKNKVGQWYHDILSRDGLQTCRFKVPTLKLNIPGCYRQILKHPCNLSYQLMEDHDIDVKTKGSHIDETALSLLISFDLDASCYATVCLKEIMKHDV
UniProt Q9BT73: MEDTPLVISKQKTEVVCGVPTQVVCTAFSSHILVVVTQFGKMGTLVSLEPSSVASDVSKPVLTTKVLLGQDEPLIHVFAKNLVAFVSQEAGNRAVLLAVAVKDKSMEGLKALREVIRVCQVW
UniProt P35236: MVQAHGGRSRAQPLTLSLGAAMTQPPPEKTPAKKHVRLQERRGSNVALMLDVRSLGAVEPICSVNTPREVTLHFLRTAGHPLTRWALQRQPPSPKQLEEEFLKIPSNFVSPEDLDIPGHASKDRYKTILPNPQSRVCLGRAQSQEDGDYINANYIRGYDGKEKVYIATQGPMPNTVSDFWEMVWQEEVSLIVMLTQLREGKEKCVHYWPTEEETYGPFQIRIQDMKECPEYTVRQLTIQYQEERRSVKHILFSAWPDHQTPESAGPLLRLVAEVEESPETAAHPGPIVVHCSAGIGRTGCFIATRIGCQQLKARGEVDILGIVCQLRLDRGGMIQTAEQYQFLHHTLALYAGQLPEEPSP
UniProt Q00577: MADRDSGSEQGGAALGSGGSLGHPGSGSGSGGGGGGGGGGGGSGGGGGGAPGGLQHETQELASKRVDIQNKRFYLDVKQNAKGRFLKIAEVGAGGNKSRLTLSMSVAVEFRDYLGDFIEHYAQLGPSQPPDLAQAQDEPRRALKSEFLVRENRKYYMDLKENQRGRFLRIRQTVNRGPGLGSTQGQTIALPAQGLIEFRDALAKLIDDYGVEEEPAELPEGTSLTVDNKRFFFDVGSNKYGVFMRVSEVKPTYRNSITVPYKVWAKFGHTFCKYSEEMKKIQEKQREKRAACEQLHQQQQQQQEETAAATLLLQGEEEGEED
UniProt P49720: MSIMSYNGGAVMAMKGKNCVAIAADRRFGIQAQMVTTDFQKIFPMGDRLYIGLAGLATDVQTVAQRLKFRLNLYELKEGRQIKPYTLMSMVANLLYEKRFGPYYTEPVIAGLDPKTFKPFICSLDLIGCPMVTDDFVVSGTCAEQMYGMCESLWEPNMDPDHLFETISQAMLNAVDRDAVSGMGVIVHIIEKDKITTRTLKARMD

[2] = compound: CC1=C(SC2=C1C(=N[C@H](C3=NN=C(N32)C)CC(=O)N)C4=CC=C(C=C4)Cl)C
Summary of the method: as §1

[3] = compound: CC1=C2C(=CC=C1)N=C(N(C2=O)C3=CC=CC=C3C)CN4C=NC5=C(N=CN=C54)N
Summary of the method: as §1

[4] = compound: Cc1sc2c(c1C)C(c1ccc(Cl)cc1)=N[C@@H](CC(=O)OC(C)(C)C)c1nnc(C)n1-2
Summary of the method: as §1

[5] = compound: c1ccc([C@@H]2C[C@H]2NC2CCNCC2)cc1
Summary of the method: as §1

| Target | log2 fold change [1] | log2 fold change [2] | log2 fold change [3] | log2 fold change [4] | log2 fold change [5] |
| --- | --- | --- | --- | --- | --- |
| PRR14L (UniProt Q5THK1) | inactive: -0.038 | inactive: 0.01 | inactive: -0.003 | inactive: -0.022 | inactive: 0.154 |
| PTS (UniProt Q03393) | inactive: -0.024 | active: -0.274 | inactive: 0.032 | inactive: -0.093 | inactive: 0.022 |
| PRRC2A (UniProt P48634) | inactive: -0.047 | inactive: 0.003 | inactive: 0.001 | inactive: 0.017 | inactive: -0.02 |
| PSMG1 (UniProt O95456) | inactive: 0.034 | inactive: -0.027 | inactive: 0.029 | inactive: -0.046 | inactive: 0.01 |
| PSMC3 (UniProt P17980) | inactive: -0.001 | inactive: 0.01 | inactive: -0.004 | inactive: 0.007 | inactive: 0.03 |
| PWP2 (UniProt Q15269) | inactive: -0.004 | inactive: -0.042 | inactive: -0.013 | inactive: -0.048 | inactive: 0.061 |
| PTGS1 isoform 6 (UniProt P23219) | inactive: -0.007 | inactive: -0.035 | inactive: 0.077 | inactive: -0.026 | inactive: -0.11 |
| PTPN12 (UniProt Q05209) | inactive: 0.006 | inactive: -0.024 | inactive: 0.018 | inactive: -0.051 | inactive: 0.008 |
| PTPN6 isoform 4 (UniProt P29350) | inactive: 0.12 | inactive: 0.029 | inactive: 0.063 | inactive: 0.047 | inactive: 0.133 |
| PSMD12 (UniProt O00232) | inactive: -0.004 | inactive: 0.014 | inactive: 0.009 | inactive: 0.034 | inactive: 0.053 |
| PTMA (UniProt P06454) | inactive: 0.015 | inactive: 0.018 | inactive: 0.01 | inactive: -0.004 | inactive: 0.241 |
| PUS7L (UniProt Q9H0K6) | inactive: 0.019 | inactive: 0.019 | inactive: -0.014 | inactive: -0.003 | inactive: -0.03 |
| PTK2B (UniProt Q14289) | inactive: -0.056 | inactive: -0.012 | inactive: -0.036 | inactive: -0.009 | inactive: -0.034 |
| PSMG3 (UniProt Q9BT73) | inactive: -0.047 | inactive: 0.01 | inactive: 0.006 | inactive: 0.017 | inactive: 0.009 |
| PSMD14 (UniProt O00487) | inactive: -0.022 | inactive: 0.006 | inactive: -0.034 | inactive: 0.059 | inactive: 0.04 |
| PSIP1 (UniProt O75475) | inactive: 0.008 | inactive: -0.002 | inactive: 0.007 | inactive: -0.037 | inactive: -0.052 |
| PSMA1 isoform 2 (UniProt P25786) | inactive: 0.037 | inactive: 0.01 | inactive: -0.01 | inactive: 0.008 | inactive: -0.004 |
| PRPF8 (UniProt Q6P2Q9) | inactive: 0.014 | inactive: -0.017 | inactive: 0.011 | inactive: 0.016 | inactive: 0.044 |
| PUM1 isoform 3 (UniProt Q14671) | inactive: -0.057 | inactive: 0.048 | inactive: 0.024 | inactive: -0.003 | inactive: 0.054 |
| PTPN7 isoform 3 (UniProt P35236) | inactive: -0.028 | inactive: 0.002 | inactive: -0.031 | inactive: 0.015 | inactive: -0.012 |
| PURA (UniProt Q00577) | inactive: 0.004 | inactive: 0.029 | inactive: 0.003 | inactive: -0.01 | inactive: 0.061 |
| PSMB3 (UniProt P49720) | inactive: 0.031 | inactive: -0.009 | inactive: -0.006 | inactive: -0.012 | inactive: -0.005 |
| PSMD5 (UniProt Q16401) | inactive: -0.012 | inactive: 0.009 | inactive: 0.027 | inactive: 0.02 | inactive: -0.007 |
| PVR (UniProt P15151) | inactive: 0.025 | inactive: -0.001 | inactive: 0.027 | inactive: 0.007 | inactive: -0.05 |

Record cards, as listed above.
PTMA (UniProt P06454) reads log2 fold change [1]: inactive: 0.015; log2 fold change [2]: inactive: 0.018; log2 fold change [3]: inactive: 0.01; log2 fold change [4]: inactive: -0.004; log2 fold change [5]: inactive: 0.241
PRRC2A (UniProt P48634) reads log2 fold change [1]: inactive: -0.047; log2 fold change [2]: inactive: 0.003; log2 fold change [3]: inactive: 0.001; log2 fold change [4]: inactive: 0.017; log2 fold change [5]: inactive: -0.02

From the supplement of paper PMC10849652
